This is one part of the list.
Tests used:
Test in all cases: log2 fold change, soluble protein after heating vs DMSO (PISA); higher = thermal stabilisation; K562 lysate, 10 uM; active = over 0.2 and 3.5 SD of the protein, either way, in both replicates (recomputed)
[1] = compound: C#Cc1cccc(Nc2ncnc3cc(OCCOC)c(OCCOC)cc23)c1 [erlotinib]
Procedure, shortened: (§1)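 Pellets of K562 cells were dounce-homogenised in PBS pH 7.4 with 1 mM MgCl2, and the crude extract was held at 1 mg/mL protein for a 30 min treatment with 10 μM compound. Aliquots were heated for 3 min over 48°C-58°C and pooled before NP-40 was added to 0.5% at 4°C. The supernatant from 21,000xg for 90 min was quantified by TMTpro 16plex LC-MS/MS with channel sums equalised. Values are reported from duplicates as log-two fold change in thermal stability relative to solvent controls.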

Chains of the proteins cited; added tags and fusions are not shown. Lines headed by an entry give the natural chain unless they say otherwise; changes in a name come on top.
UniProt Q14119: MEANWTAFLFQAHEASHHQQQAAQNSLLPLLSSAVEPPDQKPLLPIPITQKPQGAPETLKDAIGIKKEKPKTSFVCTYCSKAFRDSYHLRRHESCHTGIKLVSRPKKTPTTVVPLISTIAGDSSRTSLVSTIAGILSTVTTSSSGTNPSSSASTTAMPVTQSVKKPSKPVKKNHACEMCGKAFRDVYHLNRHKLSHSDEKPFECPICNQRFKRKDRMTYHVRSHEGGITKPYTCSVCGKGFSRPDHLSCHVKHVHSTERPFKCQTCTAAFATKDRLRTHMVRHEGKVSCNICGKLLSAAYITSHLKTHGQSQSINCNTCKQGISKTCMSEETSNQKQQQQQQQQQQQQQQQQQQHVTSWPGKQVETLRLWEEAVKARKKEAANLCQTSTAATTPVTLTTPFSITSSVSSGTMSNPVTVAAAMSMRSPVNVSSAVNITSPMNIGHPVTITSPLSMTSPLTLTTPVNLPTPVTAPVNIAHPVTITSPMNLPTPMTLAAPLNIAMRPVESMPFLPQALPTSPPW
UniProt P10746: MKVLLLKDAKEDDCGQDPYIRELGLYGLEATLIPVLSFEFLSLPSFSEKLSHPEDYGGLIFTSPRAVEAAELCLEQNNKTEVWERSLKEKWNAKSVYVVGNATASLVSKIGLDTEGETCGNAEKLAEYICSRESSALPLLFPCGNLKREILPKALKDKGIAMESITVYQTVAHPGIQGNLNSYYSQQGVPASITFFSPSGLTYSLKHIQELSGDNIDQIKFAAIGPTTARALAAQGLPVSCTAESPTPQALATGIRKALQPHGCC
UniProt Q9NYU1: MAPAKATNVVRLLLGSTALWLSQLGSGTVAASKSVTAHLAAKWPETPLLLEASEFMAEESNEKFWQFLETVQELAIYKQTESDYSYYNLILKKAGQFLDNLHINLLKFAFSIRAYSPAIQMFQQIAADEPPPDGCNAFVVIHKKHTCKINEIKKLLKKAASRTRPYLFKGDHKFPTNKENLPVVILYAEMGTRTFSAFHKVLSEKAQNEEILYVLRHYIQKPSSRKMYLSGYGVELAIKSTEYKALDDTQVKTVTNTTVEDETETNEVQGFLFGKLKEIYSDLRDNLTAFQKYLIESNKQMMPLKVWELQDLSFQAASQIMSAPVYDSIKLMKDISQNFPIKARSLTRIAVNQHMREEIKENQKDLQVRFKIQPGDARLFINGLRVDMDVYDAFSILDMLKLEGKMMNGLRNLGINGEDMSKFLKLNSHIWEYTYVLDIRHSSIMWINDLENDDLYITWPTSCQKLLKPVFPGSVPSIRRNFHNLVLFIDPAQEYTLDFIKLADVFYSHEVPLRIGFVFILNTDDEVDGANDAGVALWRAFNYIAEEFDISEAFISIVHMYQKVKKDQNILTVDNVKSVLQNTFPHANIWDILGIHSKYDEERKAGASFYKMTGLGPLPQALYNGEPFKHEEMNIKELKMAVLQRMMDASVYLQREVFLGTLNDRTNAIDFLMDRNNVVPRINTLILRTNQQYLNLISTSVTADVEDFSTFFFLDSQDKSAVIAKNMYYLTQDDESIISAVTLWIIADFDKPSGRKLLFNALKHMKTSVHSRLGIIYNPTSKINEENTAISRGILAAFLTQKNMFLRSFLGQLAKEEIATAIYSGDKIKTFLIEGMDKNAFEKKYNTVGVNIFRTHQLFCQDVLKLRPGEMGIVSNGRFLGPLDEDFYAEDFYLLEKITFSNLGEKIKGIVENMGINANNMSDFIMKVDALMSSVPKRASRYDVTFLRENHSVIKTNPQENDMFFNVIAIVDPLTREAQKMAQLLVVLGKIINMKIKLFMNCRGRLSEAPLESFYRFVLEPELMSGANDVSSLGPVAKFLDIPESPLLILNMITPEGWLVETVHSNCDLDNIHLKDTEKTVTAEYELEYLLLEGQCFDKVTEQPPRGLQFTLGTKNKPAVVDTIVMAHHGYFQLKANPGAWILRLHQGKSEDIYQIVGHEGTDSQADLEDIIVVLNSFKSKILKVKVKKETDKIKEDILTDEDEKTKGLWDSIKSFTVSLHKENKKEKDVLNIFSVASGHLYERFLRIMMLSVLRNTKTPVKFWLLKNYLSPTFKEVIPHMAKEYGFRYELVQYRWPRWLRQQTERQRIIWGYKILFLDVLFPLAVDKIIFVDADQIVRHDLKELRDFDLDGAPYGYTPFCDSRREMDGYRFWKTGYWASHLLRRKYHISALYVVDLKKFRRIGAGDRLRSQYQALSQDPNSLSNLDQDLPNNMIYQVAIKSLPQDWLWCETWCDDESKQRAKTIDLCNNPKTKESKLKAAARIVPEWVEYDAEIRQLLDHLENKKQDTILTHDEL
UniProt O14949: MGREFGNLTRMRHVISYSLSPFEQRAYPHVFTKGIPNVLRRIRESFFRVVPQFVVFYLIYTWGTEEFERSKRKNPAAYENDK
UniProt Q9BRT2: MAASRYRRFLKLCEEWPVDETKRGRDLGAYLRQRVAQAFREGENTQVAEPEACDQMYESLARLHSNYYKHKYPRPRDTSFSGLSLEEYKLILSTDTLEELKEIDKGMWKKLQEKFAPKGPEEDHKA
UniProt Q9BVJ6: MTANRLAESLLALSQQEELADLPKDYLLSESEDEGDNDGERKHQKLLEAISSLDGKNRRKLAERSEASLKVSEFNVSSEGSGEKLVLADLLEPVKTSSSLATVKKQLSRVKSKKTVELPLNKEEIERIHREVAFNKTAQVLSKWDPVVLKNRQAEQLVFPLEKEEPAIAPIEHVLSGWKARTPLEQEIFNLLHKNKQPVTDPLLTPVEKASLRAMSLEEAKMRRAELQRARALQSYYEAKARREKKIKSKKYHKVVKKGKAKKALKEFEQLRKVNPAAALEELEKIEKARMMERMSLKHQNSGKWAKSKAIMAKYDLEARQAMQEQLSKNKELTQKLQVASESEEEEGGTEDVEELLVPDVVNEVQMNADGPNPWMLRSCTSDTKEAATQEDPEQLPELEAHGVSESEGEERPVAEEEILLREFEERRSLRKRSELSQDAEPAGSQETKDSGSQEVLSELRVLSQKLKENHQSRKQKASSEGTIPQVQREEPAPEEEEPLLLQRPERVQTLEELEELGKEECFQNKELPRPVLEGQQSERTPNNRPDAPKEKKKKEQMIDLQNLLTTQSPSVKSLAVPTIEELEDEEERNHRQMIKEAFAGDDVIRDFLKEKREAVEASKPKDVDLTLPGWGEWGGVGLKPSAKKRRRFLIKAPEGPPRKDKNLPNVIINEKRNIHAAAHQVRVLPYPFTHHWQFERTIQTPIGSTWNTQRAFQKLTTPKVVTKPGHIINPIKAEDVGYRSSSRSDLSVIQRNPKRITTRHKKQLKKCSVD
UniProt Q9UHP3: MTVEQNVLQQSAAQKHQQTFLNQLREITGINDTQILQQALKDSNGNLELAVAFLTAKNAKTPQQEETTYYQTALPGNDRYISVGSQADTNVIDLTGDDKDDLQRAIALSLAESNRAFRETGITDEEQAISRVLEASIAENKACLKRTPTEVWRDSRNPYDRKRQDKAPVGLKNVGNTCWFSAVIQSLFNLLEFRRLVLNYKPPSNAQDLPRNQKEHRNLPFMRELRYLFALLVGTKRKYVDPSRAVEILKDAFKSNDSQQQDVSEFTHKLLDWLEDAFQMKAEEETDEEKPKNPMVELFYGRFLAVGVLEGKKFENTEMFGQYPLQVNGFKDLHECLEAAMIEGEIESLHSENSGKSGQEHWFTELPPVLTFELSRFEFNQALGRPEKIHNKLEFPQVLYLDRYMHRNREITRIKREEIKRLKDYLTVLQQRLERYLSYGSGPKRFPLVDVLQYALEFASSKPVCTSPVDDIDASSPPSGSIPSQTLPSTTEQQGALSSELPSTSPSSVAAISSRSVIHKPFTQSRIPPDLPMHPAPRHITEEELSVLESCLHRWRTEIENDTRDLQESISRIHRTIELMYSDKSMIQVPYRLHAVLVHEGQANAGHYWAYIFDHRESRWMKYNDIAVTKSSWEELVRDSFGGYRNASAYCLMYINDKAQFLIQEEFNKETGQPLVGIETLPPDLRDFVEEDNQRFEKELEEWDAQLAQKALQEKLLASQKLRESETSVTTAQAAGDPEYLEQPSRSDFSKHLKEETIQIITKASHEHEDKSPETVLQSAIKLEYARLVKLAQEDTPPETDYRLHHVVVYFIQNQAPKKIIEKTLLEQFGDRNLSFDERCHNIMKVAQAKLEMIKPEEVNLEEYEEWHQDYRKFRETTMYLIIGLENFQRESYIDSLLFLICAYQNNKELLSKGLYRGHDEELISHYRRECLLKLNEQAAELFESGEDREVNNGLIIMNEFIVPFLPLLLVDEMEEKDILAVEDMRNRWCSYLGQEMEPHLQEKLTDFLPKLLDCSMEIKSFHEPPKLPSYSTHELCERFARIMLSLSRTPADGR
UniProt Q9NYU2: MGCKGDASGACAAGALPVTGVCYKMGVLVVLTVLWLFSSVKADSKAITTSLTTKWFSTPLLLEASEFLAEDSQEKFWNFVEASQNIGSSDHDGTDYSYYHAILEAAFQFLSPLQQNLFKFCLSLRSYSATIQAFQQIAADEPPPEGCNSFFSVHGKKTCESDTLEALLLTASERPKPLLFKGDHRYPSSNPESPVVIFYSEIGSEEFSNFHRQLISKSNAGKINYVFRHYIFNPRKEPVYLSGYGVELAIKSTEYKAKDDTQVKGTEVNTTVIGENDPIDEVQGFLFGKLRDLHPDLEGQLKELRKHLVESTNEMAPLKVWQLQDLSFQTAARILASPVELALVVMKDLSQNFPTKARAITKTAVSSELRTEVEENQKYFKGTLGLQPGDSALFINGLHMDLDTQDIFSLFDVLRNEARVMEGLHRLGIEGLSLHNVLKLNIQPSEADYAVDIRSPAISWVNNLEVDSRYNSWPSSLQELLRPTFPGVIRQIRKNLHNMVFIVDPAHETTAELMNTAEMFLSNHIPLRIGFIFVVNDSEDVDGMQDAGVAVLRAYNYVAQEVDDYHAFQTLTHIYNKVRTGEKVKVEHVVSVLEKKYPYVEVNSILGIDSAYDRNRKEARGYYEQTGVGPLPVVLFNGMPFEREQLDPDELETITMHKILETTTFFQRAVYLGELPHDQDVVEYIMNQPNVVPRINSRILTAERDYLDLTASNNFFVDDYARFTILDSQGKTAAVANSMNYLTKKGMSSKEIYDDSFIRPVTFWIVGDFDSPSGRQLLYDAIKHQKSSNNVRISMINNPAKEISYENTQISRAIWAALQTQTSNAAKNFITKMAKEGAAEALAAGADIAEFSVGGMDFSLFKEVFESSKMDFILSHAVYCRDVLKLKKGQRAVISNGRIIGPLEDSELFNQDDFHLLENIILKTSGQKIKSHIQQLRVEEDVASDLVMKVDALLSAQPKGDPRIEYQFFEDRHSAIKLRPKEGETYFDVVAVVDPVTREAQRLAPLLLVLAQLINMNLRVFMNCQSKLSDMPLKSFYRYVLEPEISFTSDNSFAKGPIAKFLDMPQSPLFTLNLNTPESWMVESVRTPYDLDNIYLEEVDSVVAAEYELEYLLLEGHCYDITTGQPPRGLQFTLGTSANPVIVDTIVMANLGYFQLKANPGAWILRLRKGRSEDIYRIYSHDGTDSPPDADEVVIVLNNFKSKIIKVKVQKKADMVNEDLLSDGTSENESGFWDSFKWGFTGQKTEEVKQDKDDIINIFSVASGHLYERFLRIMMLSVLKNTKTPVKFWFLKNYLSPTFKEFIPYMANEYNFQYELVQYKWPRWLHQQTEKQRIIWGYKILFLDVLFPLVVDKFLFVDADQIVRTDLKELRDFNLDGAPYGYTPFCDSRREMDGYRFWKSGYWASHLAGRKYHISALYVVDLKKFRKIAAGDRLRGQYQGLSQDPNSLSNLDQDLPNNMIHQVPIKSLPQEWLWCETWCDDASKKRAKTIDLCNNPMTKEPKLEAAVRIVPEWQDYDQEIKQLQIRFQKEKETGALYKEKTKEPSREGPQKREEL
UniProt P11172: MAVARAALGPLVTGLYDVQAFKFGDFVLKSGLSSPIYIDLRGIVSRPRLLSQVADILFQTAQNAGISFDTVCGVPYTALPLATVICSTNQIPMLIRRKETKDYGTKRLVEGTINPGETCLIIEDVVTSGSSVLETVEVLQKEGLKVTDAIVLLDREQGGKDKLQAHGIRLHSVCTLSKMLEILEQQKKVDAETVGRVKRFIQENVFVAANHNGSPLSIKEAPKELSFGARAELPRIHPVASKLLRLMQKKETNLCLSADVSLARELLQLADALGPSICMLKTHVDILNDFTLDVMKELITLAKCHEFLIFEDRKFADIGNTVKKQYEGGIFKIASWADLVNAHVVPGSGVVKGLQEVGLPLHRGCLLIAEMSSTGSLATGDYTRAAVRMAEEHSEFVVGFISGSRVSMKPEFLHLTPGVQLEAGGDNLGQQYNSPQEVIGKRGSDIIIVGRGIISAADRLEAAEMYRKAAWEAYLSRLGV

[2] = compound: C/C(=N\NC(=O)C1=CC(=CC=C1)S(=O)(=O)N2CCOCC2)/C3=C(C=CC(=C3)Cl)O
Procedure, shortened: as §1

[3] = compound: C1=CC(=CC=C1C2=NC3=C(N2)C=C(C=C3)C(=O)N)OC4=CC=C(C=C4)Cl
Procedure, shortened: as §1

[4] = compound: C1=CC2=C(C=CC(=C2)/C=C\3/C(=O)NC(=NCC4=CC=CS4)S3)N=C1
Procedure, shortened: as §1

[5] = compound: C1=CC2=NC=CN=C2C=C1/C=C/3\C(=O)NC(=O)S3
Procedure, shortened: as §1

[6] = compound: C1=CC=C(C=C1)C2=NC(=C(N2)C3=CC=NC=C3)C4=CC(=C(C=C4)Cl)O
Procedure, shortened: as §1

[7] = compound: C1=CC=C2C(=C1)C3=NNC4=CC=CC(=C43)C2=O
Procedure, shortened: as §1

[8] = compound: C1CCN(C1)C(=O)NC2=CC=CC(=C2)NC3=NC=C(C(=N3)NCCC4=CN=CN4)Br
Procedure, shortened: as §1

[9] = compound: C1CN(CCC1(CC2=CC=C(C=C2)Cl)N)C3=NC=NC4=C3C=CN4
Procedure, shortened: as §1

[10] = compound: C1COCCN1CCN2C3=CC=CC=C3N=C2NC(=O)C4=CC(=CC=C4)[N+](=O)[O-] [IRAK-1-4 Inhibitor I]
Procedure, shortened: as §1

[11] = compound: C=CC(=O)N1CCC[C@@H](n2nc(-c3ccc(Oc4ccccc4)cc3)c3c(N)ncnc32)C1 [ibrutinib]
Procedure, shortened: as §1

[12] = compound: CC(=O)c1cnc2ccc(-c3cc(Cl)c(O)c(Cl)c3)nc2c1N[C@H]1CC[C@H](CN(C)C)CC1
Procedure, shortened: as §1

[13] = compound: CC(C)(C)Cn1c(N)nc2ccc(-c3[nH]c(C(C)(C)C)nc3-c3ccc(F)cc3)nc21 [ralimetinib]
Procedure, shortened: as §1

[14] = compound: CC(C)(O)CC(=O)NCCn1ccc2ncnc(Nc3ccc(Oc4cccc(C(F)(F)F)c4)c(Cl)c3)c21
Procedure, shortened: as §1

[15] = compound: CC(C)C1=C2N=C(C=C(N2N=C1)NCC3=CC=CC=C3)NCCCCCCN
Procedure, shortened: as §1

[16] = compound: CC1=C(C(CC(=O)N1)C2=CC=C(C=C2)C(F)(F)F)C(=O)NC3=C(C=C4C(=C3)C=NN4)F
Procedure, shortened: as §1

[17] = compound: CC1=C(C2=C(C=C1)C(=O)C3=CC=CC=C3N2CCCN)C
Procedure, shortened: as §1

[18] = compound: CC1=C(C=C(C=C1)NC(=O)C2=CC(=CC=C2)C(C)(C)C#N)NC3=CC4=C(C=C3)N=CN(C4=O)C
Procedure, shortened: as §1

[19] = compound: CC1=C(C=C(C=C1)NC(=O)C2=CC(=CC=C2)N(C)C)NC(=O)C3=CC=C(C=C3)O
Procedure, shortened: as §1

[20] = compound: CC1=CC=C(C=C1)SC2=C3C=C(SC3=CN=C2)C(=O)N
Procedure, shortened: as §1

Target | log2 fold change [1] | log2 fold change [2] | log2 fold change [3] | log2 fold change [4] | log2 fold change [5] | log2 fold change [6] | log2 fold change [7] | log2 fold change [8] | log2 fold change [9] | log2 fold change [10] | log2 fold change [11] | log2 fold change [12] | log2 fold change [13] | log2 fold change [14] | log2 fold change [15] | log2 fold change [16] | log2 fold change [17] | log2 fold change [18] | log2 fold change [19] | log2 fold change [20]
VEZF1 (UniProt Q14119) | inactive: -0.084 | inactive: 0.049 | inactive: -0.001 | inactive: -0.059 | inactive: -0.053 | inactive: 0.036 | inactive: 0.053 | inactive: 0.027 | inactive: -0.168 | inactive: 0.04 | inactive: 0.113 | inactive: 0.01 | inactive: 0.1 | inactive: 0.048 | inactive: -0.115 | inactive: -0.102 | inactive: 0.008 | inactive: 0.166 | inactive: -0.094 | inactive: 0.036
UQCRC2 (UniProt P22695) | inactive: 0 | inactive: -0.029 | inactive: 0.006 | inactive: -0.005 | inactive: -0.019 | inactive: 0.01 | inactive: 0.013 | inactive: -0.001 | inactive: 0.019 | inactive: 0.014 | inactive: -0.022 | inactive: 0.001 | inactive: 0.005 | inactive: -0.04 | inactive: -0.005 | inactive: -0.001 | inactive: 0.012 | inactive: 0.029 | inactive: 0.003 | inactive: -0.013
UROS (UniProt P10746) | inactive: 0.059 | inactive: 0.028 | inactive: 0.086 | inactive: -0.033 | inactive: -0.039 | inactive: 0.02 | inactive: -0.03 | inactive: 0.004 | inactive: -0.007 | inactive: 0.003 | inactive: 0.008 | inactive: 0.033 | inactive: -0.01 | inactive: 0.019 | inactive: 0 | inactive: -0.013 | inactive: 0.003 | inactive: -0.029 | inactive: -0.008 | inactive: 0.023
VAT1 (UniProt Q99536) | inactive: -0.01 | inactive: -0.012 | inactive: 0.053 | inactive: -0.001 | inactive: -0.002 | inactive: 0.003 | inactive: 0.012 | inactive: 0.015 | inactive: 0.012 | inactive: 0.009 | inactive: 0.001 | inactive: 0.006 | inactive: -0.019 | inactive: -0.021 | inactive: -0.021 | inactive: -0.021 | inactive: -0.013 | inactive: 0.008 | inactive: 0.002 | inactive: -0.007
VAPA (UniProt Q9P0L0) | inactive: -0.049 | inactive: 0.061 | inactive: -0.101 | inactive: 0.006 | inactive: 0.002 | inactive: 0.025 | inactive: -0.072 | inactive: 0.043 | inactive: -0.037 | inactive: -0.091 | inactive: -0.024 | inactive: 0.002 | inactive: -0.105 | inactive: 0.094 | inactive: 0.012 | inactive: -0.068 | inactive: 0.023 | inactive: -0.102 | inactive: 0.008 | inactive: 0.029
UFSP2 (UniProt Q9NUQ7) | inactive: -0.04 | inactive: -0.034 | inactive: 0.028 | inactive: 0.098 | inactive: -0.015 | inactive: -0.042 | inactive: -0.055 | inactive: -0.026 | inactive: -0.037 | inactive: 0.023 | inactive: 0.004 | inactive: -0.005 | inactive: 0.023 | inactive: -0.004 | inactive: -0.023 | inactive: 0.01 | inactive: 0.005 | inactive: -0.036 | inactive: -0.003 | inactive: -0.006
UGGT2 (UniProt Q9NYU1) | inactive: -0.083 | inactive: 0.056 | inactive: -0.013 | inactive: -0.009 | inactive: -0.03 | inactive: -0.021 | inactive: 0.056 | inactive: 0.027 | inactive: 0.015 | inactive: -0.003 | inactive: 0.068 | inactive: -0.04 | inactive: 0.04 | inactive: 0.004 | inactive: -0.031 | inactive: 0.079 | inactive: -0.027 | inactive: -0.01 | inactive: 0.017 | inactive: 0.015
UQCRQ (UniProt O14949) | inactive: 0.016 | inactive: 0.001 | inactive: 0.031 | inactive: 0.024 | inactive: -0.041 | inactive: -0.031 | inactive: 0.011 | inactive: -0.003 | inactive: -0.049 | inactive: 0.007 | inactive: -0.018 | inactive: -0.015 | inactive: -0.009 | inactive: -0.026 | inactive: 0.021 | inactive: 0.005 | inactive: -0.01 | inactive: 0.029 | inactive: -0.018 | inactive: -0.015
UQCC2 (UniProt Q9BRT2) | inactive: 0.037 | inactive: 0.044 | inactive: -0.039 | inactive: 0.06 | inactive: 0.001 | inactive: -0.007 | inactive: 0 | inactive: -0.05 | inactive: -0.023 | inactive: 0.016 | inactive: 0.054 | inactive: 0 | inactive: 0.006 | inactive: 0.01 | inactive: 0.018 | inactive: -0.022 | inactive: 0.016 | inactive: 0.007 | inactive: -0.016 | inactive: -0.012
VANGL1 (UniProt Q8TAA9) | inactive: 0 | inactive: -0.043 | inactive: -0.088 | inactive: 0.022 | inactive: -0.149 | inactive: -0.377 | inactive: -0.01 | inactive: -0.072 | inactive: 0.004 | inactive: 0.182 | inactive: 0.08 | inactive: -0.041 | active: -0.317 | inactive: 0.183 | inactive: 0.037 | inactive: 0.007 | inactive: -0.109 | inactive: -0.062 | inactive: -0.066 | inactive: 0.007
UTP14A (UniProt Q9BVJ6) | inactive: 0.009 | inactive: -0.124 | inactive: 0.091 | inactive: -0.008 | inactive: -0.041 | inactive: 0.033 | inactive: -0.043 | inactive: -0.001 | inactive: -0.007 | inactive: -0.014 | inactive: 0.009 | inactive: 0.029 | inactive: 0.001 | inactive: 0.009 | inactive: -0.076 | inactive: -0.004 | inactive: -0.045 | inactive: 0.024 | inactive: -0.069 | inactive: -0.014
USP25 (UniProt Q9UHP3) | inactive: -0.02 | inactive: 0.022 | inactive: -0.002 | inactive: 0.018 | inactive: -0.008 | inactive: 0.003 | inactive: -0.016 | inactive: -0.019 | inactive: 0 | inactive: -0.009 | inactive: 0.005 | inactive: 0.012 | inactive: 0.04 | inactive: -0.008 | inactive: -0.002 | inactive: -0.007 | inactive: -0.003 | inactive: 0.009 | inactive: 0.011 | inactive: 0.004
UGGT1 (UniProt Q9NYU2) | inactive: -0.006 | inactive: -0.021 | inactive: 0.021 | inactive: -0.004 | inactive: -0.012 | inactive: -0.01 | inactive: 0.013 | inactive: 0 | inactive: -0.01 | inactive: 0.001 | inactive: -0.006 | inactive: -0.013 | inactive: 0.015 | inactive: 0.003 | inactive: 0 | inactive: 0.024 | inactive: -0.009 | inactive: -0.002 | inactive: -0.001 | inactive: 0
USP13 (UniProt Q92995) | inactive: -0.026 | inactive: 0.005 | inactive: 0.001 | inactive: 0.036 | inactive: 0.021 | inactive: 0.009 | inactive: 0.016 | inactive: -0.011 | inactive: -0.007 | inactive: -0.003 | inactive: 0 | inactive: -0.044 | inactive: -0.038 | inactive: -0.028 | inactive: 0.007 | inactive: 0.007 | inactive: -0.011 | inactive: 0.006 | inactive: -0.027 | inactive: -0.012
VCPIP1 (UniProt Q96JH7) | inactive: -0.054 | inactive: -0.04 | inactive: -0.002 | inactive: 0.053 | inactive: -0.037 | inactive: 0.041 | inactive: 0.006 | inactive: 0 | inactive: 0.038 | inactive: -0.035 | inactive: 0.002 | inactive: 0.01 | inactive: 0.009 | inactive: 0.011 | inactive: -0.029 | inactive: -0.021 | inactive: -0.05 | inactive: -0.007 | inactive: 0.048 | inactive: -0.017
UMPS (UniProt P11172) | inactive: -0.005 | inactive: -0.008 | inactive: 0 | inactive: 0.026 | inactive: 0.028 | inactive: 0.003 | inactive: 0.004 | inactive: 0.007 | inactive: -0.013 | inactive: -0.023 | inactive: 0.006 | inactive: -0.024 | inactive: 0.021 | inactive: -0.002 | inactive: -0.011 | inactive: 0.009 | inactive: 0.034 | inactive: -0.01 | inactive: 0.009 | inactive: -0.003

A second format for some results above.
Target,log2 fold change [1],log2 fold change [2],log2 fold change [3],log2 fold change [4],log2 fold change [5],log2 fold change [6],log2 fold change [7],log2 fold change [8],log2 fold change [9],log2 fold change [10],log2 fold change [11],log2 fold change [12],log2 fold change [13],log2 fold change [14],log2 fold change [15],log2 fold change [16],log2 fold change [17],log2 fold change [18],log2 fold change [19],log2 fold change [20]
UROS (UniProt P10746),inactive: 0.059,inactive: 0.028,inactive: 0.086,inactive: -0.033,inactive: -0.039,inactive: 0.02,inactive: -0.03,inactive: 0.004,inactive: -0.007,inactive: 0.003,inactive: 0.008,inactive: 0.033,inactive: -0.01,inactive: 0.019,inactive: 0,inactive: -0.013,inactive: 0.003,inactive: -0.029,inactive: -0.008,inactive: 0.023
UFSP2 (UniProt Q9NUQ7),inactive: -0.04,inactive: -0.034,inactive: 0.028,inactive: 0.098,inactive: -0.015,inactive: -0.042,inactive: -0.055,inactive: -0.026,inactive: -0.037,inactive: 0.023,inactive: 0.004,inactive: -0.005,inactive: 0.023,inactive: -0.004,inactive: -0.023,inactive: 0.01,inactive: 0.005,inactive: -0.036,inactive: -0.003,inactive: -0.006
VCPIP1 (UniProt Q96JH7),inactive: -0.054,inactive: -0.04,inactive: -0.002,inactive: 0.053,inactive: -0.037,inactive: 0.041,inactive: 0.006,inactive: 0,inactive: 0.038,inactive: -0.035,inactive: 0.002,inactive: 0.01,inactive: 0.009,inactive: 0.011,inactive: -0.029,inactive: -0.021,inactive: -0.05,inactive: -0.007,inactive: 0.048,inactive: -0.017
